Results deposited as PubChem BioAssay AID686938 (Drosophila RNAi Screening Center, 2013).
Aim: 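Fly genes required for calcium entry once internal stores are emptied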 (primary screen). Cell system: Drosophila S2R+ cells. Knock-down reagent: long dsRNA against Drosophila genes, about 0.25 µg dsRNA per well, roughly 10,000 cells. Time to read-out: 5 days of knock-down before the calcium assay. Treatment: thapsigargin (SERCA pump blocker) to empty calcium stores; entry signal taken 4 min after adding it. Measurement: 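Duplicate raw fluo-4 intensities per well from a plate reader, at rest and four minutes after thapsigargin emptied calcium stores; entry-to-rest ratio filled for only some wells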. Scale: calcium entry signal: higher = stronger calcium signal after store depletion; entry to resting ratio: higher = more calcium entry relative to resting level; resting calcium signal: higher = higher resting calcium signal. Active means: 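Hit if the duplicate-averaged plate z-score for entry over resting signal is under −3; wells with weak total dye signal (Fmax z < −2) or more than 5 off-targets removed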. Calls: active = strongly reduced calcium entry; inactive = no strong reduction.
In all, the deposit lists about 23,000 reagents; below is an unselected part of those that have a named target and a result. Over the whole deposit, 75 (0.33%) are marked active. 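Raw plate signals without normalisation; calls rest on plate z-scores that were not deposited; ratio present for only 364 wells.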 Entries without a mark were called inactive. Names joined by + are all predicted targets of the reagent. No sequences are given here. The record does not give: the dose of the treatment.

| Gene | amplicon | calcium entry signal, replicate 1 (fluorescence units) | calcium entry signal, replicate 2 (fluorescence units) | entry to resting ratio | resting calcium signal, replicate 1 (fluorescence units) | resting calcium signal, replicate 2 (fluorescence units) |
| --- | --- | --- | --- | --- | --- | --- |
| CG7173 | DRSC11812 | 2.67e7 | 3.65e7 | – | 1.40e7 | 2.72e7 |
| CG7173 | DRSC23252 | 3.64e7 | 3.35e7 | – | 2.04e7 | 1.57e7 |
| sunn | DRSC21659 | 3.81e7 | 4.08e7 | – | 2.31e7 | 1.79e7 |
| CG7367 | DRSC03049 | 2.40e7 | 3.41e7 | – | 1.24e7 | 1.49e7 |
| Kank | DRSC05513 | 2.82e7 | 4.89e7 | – | 1.27e7 | 2.12e7 |
| Kank | DRSC05933 | 4.66e7 | 4.12e7 | – | 2.06e7 | 2.08e7 |
| SPARC | DRSC14123 | 2.75e7 | 4.69e7 | – | 1.48e7 | 2.06e7 |
| CG10467 | DRSC09728 | 2.66e7 | 4.61e7 | – | 1.30e7 | 1.91e7 |
| eRF1 | DRSC11779 | 2.66e7 | 2.11e7 | – | 2.42e7 | 1.34e7 |
| RN-tre | DRSC07521 | 3.62e7 | 3.87e7 | – | 1.82e7 | 1.91e7 |
| CG4593 | DRSC18374 | 3.15e7 | 3.57e7 | – | 1.66e7 | 1.84e7 |
| CG4409 | DRSC06869 | 4.85e7 | 6.64e7 | – | 2.21e7 | 3.18e7 |
| scpr-A + scpr-C + scpr-B | DRSC15715 | 3.70e7 | 2.38e7 | – | 1.88e7 | 1.33e7 |
| CG1468 | DRSC17946 | 4.41e7 | 4.11e7 | – | 1.83e7 | 1.70e7 |
| Prosalpha7 | DRSC07516 | 2.35e7 | 1.90e7 | – | 1.48e7 | 1.33e7 |
| fu | DRSC20333 | 2.77e7 | 2.26e7 | – | 1.57e7 | 1.12e7 |
| Acbp2 | DRSC11141 | 2.09e7 | 4.50e7 | – | 1.10e7 | 1.95e7 |
| Cog4 | DRSC03057 | 3.63e7 | – | – | 2.18e7 | – |
| hyd | DRSC16971 | 2.98e7 | 2.81e7 | – | 1.47e7 | 1.49e7 |
| CG15084 | DRSC06515 | 2.23e7 | 4.89e7 | – | 1.07e7 | 2.45e7 |
| CG15084 | DRSC21403 | 3.95e7 | 4.34e7 | – | 2.32e7 | 1.96e7 |
| Atat | DRSC10392 | 5.61e7 | 4.10e7 | – | 3.60e7 | 1.73e7 |
| CG10750 | DRSC02105 | 4.09e7 | – | – | 2.02e7 | – |
| CG34338 | DRSC17535 | 2.88e7 | 3.81e7 | – | 1.45e7 | 1.67e7 |
| CG11438 | DRSC11660 | 3.49e7 | 4.92e7 | – | 1.66e7 | 1.89e7 |
| CG44325 | DRSC18039 | 2.98e7 | 3.25e7 | – | 1.34e7 | 1.42e7 |
| CG44325 | DRSC18423 | 3.23e7 | 2.92e7 | – | 1.40e7 | 1.41e7 |
| Vml | DRSC17695 | 5.47e7 | 4.95e7 | – | 2.58e7 | 2.01e7 |
| Vml | DRSC18529 | 3.61e7 | 4.57e7 | 2 | 1.81e7 | 2.06e7 |
| Lcp4 | DRSC07458 | 4.53e7 | 4.09e7 | – | 2.11e7 | 1.82e7 |
| CG34460 | DRSC06974 | 3.49e7 | 3.70e7 | – | 1.47e7 | 1.80e7 |
| LBR | DRSC04298 | 2.14e7 | – | – | 1.13e7 | – |
| CG42323 | DRSC19629 | 4.67e7 | 3.56e7 | – | 2.40e7 | 1.72e7 |
| CG42323 | DRSC21397 | 4.04e7 | 3.62e7 | – | 2.24e7 | 1.67e7 |
| CG15712 | DRSC06583 | 5.30e7 | 4.54e7 | – | 2.32e7 | 2.19e7 |
| CG4783 | DRSC15644 | 4.05e7 | 2.58e7 | – | 1.95e7 | 1.39e7 |
| Nepl3 | DRSC02681 | 4.39e7 | – | – | 2.11e7 | – |
| Nepl20 | DRSC14878 | 3.67e7 | 6.33e7 | – | 1.91e7 | 2.63e7 |
| CG7627 | DRSC03065 | 7.32e7 | – | – | 2.51e7 | – |
| CG12099 | DRSC08253 | 3.09e7 | 3.73e7 | – | 1.50e7 | 1.65e7 |
| CG13725 | DRSC10054 | 3.38e7 | 3.54e7 | – | 1.54e7 | 1.67e7 |
| Sfmbt | DRSC02552 | 4.64e7 | – | – | 2.32e7 | – |
| CG1907 | DRSC15399 | 2.72e7 | 3.30e7 | – | 1.31e7 | 1.58e7 |
| CheB42b | DRSC22878 | 4.53e7 | 3.62e7 | – | 2.16e7 | 1.52e7 |
| SelR | DRSC16071 | 3.25e7 | 3.61e7 | – | 1.59e7 | 1.84e7 |
| CG32246 | DRSC08115 | 4.22e7 | 3.66e7 | – | 1.77e7 | 1.56e7 |
| CG42853 | DRSC09534 | 4.15e7 | 4.48e7 | – | 1.91e7 | 2.52e7 |
| Plp | DRSC10006 | 3.46e7 | 4.61e7 | – | 1.83e7 | 1.70e7 |
| Plp | DRSC10333 | 3.63e7 | 5.23e7 | – | 1.68e7 | 1.95e7 |
| Plp | DRSC10700 | 4.02e7 | 5.00e7 | – | 1.81e7 | 3.25e7 |
| rin | DRSC17045 | 3.85e7 | 6.98e7 | – | 2.15e7 | 6.69e7 |
| rin | DRSC22997 | 5.48e7 | 4.04e7 | – | 2.86e7 | 1.72e7 |
| Cyp6d5 | DRSC16634 | 3.25e7 | 3.23e7 | – | 1.41e7 | 1.49e7 |
| TotC | DRSC13449 | 4.13e7 | 4.09e7 | – | 2.18e7 | 1.86e7 |
| CG43127 | DRSC09039 | 3.61e7 | 3.42e7 | – | 2.08e7 | 1.65e7 |
| mRRF2 | DRSC16143 | 3.53e7 | 3.00e7 | – | 1.64e7 | 1.20e7 |
| Spn53F | DRSC06022 | 4.93e7 | 4.27e7 | – | 2.09e7 | 2.03e7 |
| Rbp6 | DRSC09456 | 4.42e7 | 3.51e7 | – | 2.01e7 | 1.95e7 |
| Rbp6 | DRSC09462 | 4.48e7 | 5.16e7 | – | 2.11e7 | 2.70e7 |
| Rbp6 | DRSC10072 | 2.63e7 | 5.23e7 | – | 1.42e7 | 2.10e7 |
| Rbp6 | DRSC10073 | 2.54e7 | 5.27e7 | – | 1.45e7 | 1.81e7 |
| Rbp6 | DRSC10662 | 2.75e7 | 4.73e7 | – | 1.48e7 | 1.80e7 |

Sorted by “calcium entry signal, replicate 1 (fluorescence units)” (low to high): 3 of the entries above.
| Gene | amplicon | calcium entry signal, replicate 1 (fluorescence units) | calcium entry signal, replicate 2 (fluorescence units) | entry to resting ratio | resting calcium signal, replicate 1 (fluorescence units) | resting calcium signal, replicate 2 (fluorescence units) |
| --- | --- | --- | --- | --- | --- | --- |
| CG42323 | DRSC21397 | 4.04e7 | 3.62e7 | – | 2.24e7 | 1.67e7 |
| CG42323 | DRSC19629 | 4.67e7 | 3.56e7 | – | 2.40e7 | 1.72e7 |
| CG15712 | DRSC06583 | 5.30e7 | 4.54e7 | – | 2.32e7 | 2.19e7 |
